Experimental data from PubChem BioAssay AID1688 (National Center for Advancing Translational Sciences (NCATS), 2009).
“And” between values parts separate entries of the source, which are not always exact repeats. Equal entries are not always repeated. The campaign covered roughly 220,000 compounds. About 2,400 (1.1%) were called active. This list was built around the results that the source calls inconclusive (neither active nor inactive); the mix of calls is not that of the screen. Calls follow the shape of the dose curve; as a rule, active = well fitted inhibition curve with a large enough effect; inconclusive = small, poorly fitted or top-dose-only effect, or effect the other way; inactive = no such curve, though single readings can be large or run the other way. Potencies of inconclusive entries are doubtful fits and often do not repeat.

Test: qHTS Multiplex Assay to Identify Dual Action Probes in a Cell Model of Huntington: Aggregate Formation (GFP); also: nearly all actives have a fitted effect of over 60% in size
Conditions: PC12 HttQ103-GFP aggregates, Acumen cytometry, 40 h; activity change, negative = inhibition: at 46.1 µM (top of the series) unless noted
In short: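 Aggregate formation scored by laser-scanning cytometer (488 excitation, 500–530 emission) in lysed PC12 cells expressing Q103-GFP after 100 nM tebufenozide induction; library tested in dose series, with ATPLite reagent added in the multiplex.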
% is scaled to controls: 0 for no effect and ±100 for the full control effect; potency is read from the fitted curve at half-maximal effect.

SMILES | Potency | activity change, negative = inhibition
COc1ccc(Cc2nnc(SCc3ccc([N+](=O)[O-])cc3)o2)cc1 | active: 7.08 µM | 
COc1cc(/C=C/C(=O)C2C(=O)C=C(C)OC2=O)cc(OC)c1O (configuration not stated) | inconclusive: 15.8 µM [activator, partial curve] | 
Cc1cccc(N(CC(=O)Nc2c(C)n(C)n(-c3ccccc3)c2=O)S(C)(=O)=O)c1 | inconclusive: 2.82 µM [activator, single point] | 
O=S(=O)(c1ccccc1)N1c2cc(Cl)ccc2Oc2nc3ccccc3nc21 | inconclusive: 1.26 µM [inhibitor, single point] | 
COc1ccc(-c2noc(-c3cc(C)cc(C)c3)n2)cc1OC | inconclusive: 3.16 µM [activator, partial curve] | 
CCN1C(=O)/C(=C\c2ccncc2)SC1=Nc1ccc(C)c(C)c1 | inconclusive: 3.55 µM [activator, full curve, poor fit] | 
CC(=O)N1CCC(N(C(=O)Nc2ccc(C)c(C)c2)C2CCCC2)CC1 | inconclusive: 0.316 µM [activator, partial curve] | 
O=C(Nc1ccc(F)c(F)c1)c1cnc(-c2ccccc2)nc1-c1ccccc1 | inconclusive: 17.8 µM [inhibitor, partial curve] | 
CCCCN(CCCC)S(=O)(=O)c1ccc(NS(=O)(=O)c2ccc(NC(C)=O)cc2)cc1 | inconclusive: 35.5 µM [inhibitor, single point] | 
C/C(=N\NC(=O)c1cc(-c2cccs2)nc2ccccc12)c1ccccn1 | active: 0.891 µM | 
COc1ccc([C@@H]2[C@H]3CN(C(C)=O)CC=C3C(C#N)=C(N)C2(C#N)C#N)c2ccccc12 | inconclusive: 35.5 µM [activator, single point] | 
O=C(NC(=S)Nn1cnc2c(cnn2-c2ccccc2)c1=O)c1ccccc1 | inconclusive: 0.501 µM [activator, partial curve, poor fit] | 
CCOc1ccc(CN2CCN(Cc3cc4c(cc3Cl)OCO4)CC2CCO)cc1 (configuration not stated) |  | inactive: 16.3% [at 9.22 µM]
CS(=O)(=O)c1ncc(Cl)c(C(=O)Nc2ccc3ccccc3c2)n1 | inconclusive: 7.08 µM [inhibitor, full curve, poor fit] | 
CCc1cc(C(=O)COc2ccccc2F)c(O)cc1O | inconclusive: 35.5 µM [inhibitor, single point] | 
O=C(NCC1CCCO1)c1ccc(Cn2c(=S)[nH]c3ccccc3c2=O)cc1 (configuration not stated) | inactive | 
Cc1ccc(S(=O)(=O)Oc2ccccc2/C=N/Nc2ccc(C(=O)O)cc2)cc1 |  | inactive: -4.01% [at 9.22 µM]
Cc1ccc(NC(=O)CN(C)Cc2cc(=O)n3ccsc3n2)cc1 | inconclusive: 0.112 µM [activator, full curve, poor fit] | 
CC1(OC(=O)CCc2ccccc2)C(=O)C=C2C=C(c3ccc(C#N)cc3)N(c3ccccc3)C=C2C1=O (configuration not stated) |  | inactive: -8.38% [at 9.22 µM]
Cc1ccc(Nc2nc(N)nc(CSc3nc4ccccc4s3)n2)cc1 | inconclusive: 35.5 µM [inhibitor, single point] | 
Cc1cc(C(=O)OCC(=O)c2cccc([N+](=O)[O-])c2)c2cccc(C)c2n1 | inactive | 
Cc1nc(CNS(=O)(=O)c2ccc(Oc3ccccc3)cc2)cs1 | active: 10 µM | 
Cc1cccc(NC(=S)NCCSc2ccc(Cl)cc2)c1 | inconclusive: 22.4 µM [inhibitor, single point] | 

SMILES | Potency | activity change, negative = inhibition
COC(=O)c1ccc(OC)c(CSc2nnc(COc3ccccc3)o2)c1 | inconclusive: 2.24 µM [inhibitor, partial curve] | 
CCOC(=O)c1ccc2ncc(C(=O)OCC)c(Nc3ccc(N4CCOCC4)cc3)c2c1 | inconclusive: 14.1 µM [inhibitor, single point] | 
O=C(Nc1ccc(N2CCOCC2)nc1)c1ccc(Cl)cc1 | inconclusive: 0.708 µM [activator, single point] | 
COc1ccc(C(=O)COc2cccc(NC(=O)c3ccco3)c2)cc1 | inconclusive: 35.5 µM [inhibitor, single point] | 
c1ccc(CNc2ncnc3ccccc23)cc1 | active: 4.47 µM | 
O=C(Nc1cccc(Cl)c1)N(Cc1nc2ccccc2c(=O)[nH]1)Cc1cccs1 | inconclusive: 15.8 µM [inhibitor, single point] | 
N=c1n(Cc2ccccc2)c2ccccc2n1CC(O)COc1ccccc1 (configuration not stated) | inconclusive: 22.4 µM [inhibitor, single point] | 
O=C(/C=C/c1ccc(Br)o1)NC(c1ccccc1)c1ccccc1 | inconclusive: 15.8 µM [inhibitor, single point] | 
O=C(NN1CCN(Cc2ccccc2Cl)CC1)c1ccc(Cl)cc1 | inactive | 
Cc1cccc(Oc2cc([N+](=O)[O-])cc3c2C(=O)Nc2ccccc2O3)c1 | inconclusive: 12.6 µM [inhibitor, single point] | 
CC(C)(C)c1nc(SCC(=O)Nc2ccc(N3CCOCC3)cc2)c2ccccc2n1 | inconclusive: 6.31 µM [activator, partial curve] | 
Cc1[nH]c(=O)[nH]c(=O)c1CSc1nnc(CCCCCNC(=O)OC(C)(C)C)o1 | inactive | 
Cc1cc(C)n(CCC(=O)N/N=C/c2ccc(O)cc2O)n1 | inconclusive: 6.31 µM [inhibitor, partial curve] | 
Cc1cc(C(=O)CCl)c(C)n1CCc1ccc(F)cc1 | inconclusive: 35.5 µM [inhibitor, single point] | 
Cc1ccc(O)c(C(=O)c2cnc3c(c2)COc2ccc(C)cc2-3)c1 | inconclusive: 14.1 µM [inhibitor, single point] | 
c1ccc(N2CCN(c3nc(-c4cccs4)nc4ccccc34)CC2)cc1 | inactive | 
CCN(C(=O)c1ccco1)c1nc(CC(=O)Nc2ccc(Cl)cc2)cs1 | inconclusive: 14.1 µM [inhibitor, partial curve] | 
O=C(c1ccc(Cl)cc1)C1CCCN(Cc2ccc(Oc3ncccn3)cc2)C1 (configuration not stated) | inconclusive: 3.55 µM [inhibitor, full curve, poor fit] | 
COc1ccc(NS(=O)(=O)c2cccc3nsnc23)cc1OC | inconclusive: 11.2 µM [inhibitor, single point] | 
CC1(C)CC(=O)C=C(NNC(=O)c2ccccc2O)C1 | inactive | 
O=C(CCCCCNC(=O)c1ccccc1)N/N=C/c1ccccc1O | inconclusive: 10 µM [inhibitor, partial curve] | 
O=C(Nc1cccc(C(F)(F)F)c1)c1cc(S(=O)(=O)N2CCCCC2)ccc1N1CCOCC1 | inconclusive: 35.5 µM [inhibitor, single point] | 
COc1ccccc1-n1c(-c2ccccc2)c[n+]2c1CCc1ccccc1-2 | active: 5.01 µM and active: 2.24 µM | 

A few values from the list:
Cc1[nH]c(=O)[nH]c(=O)c1CSc1nnc(CCCCCNC(=O)OC(C)(C)C)o1 | Potency: inactive
COc1ccc(NS(=O)(=O)c2cccc3nsnc23)cc1OC | Potency: inconclusive: 11.2 µM [inhibitor, single point]
O=C(NN1CCN(Cc2ccccc2Cl)CC1)c1ccc(Cl)cc1 | Potency: inactive
O=C(/C=C/c1ccc(Br)o1)NC(c1ccccc1)c1ccccc1 | Potency: inconclusive: 15.8 µM [inhibitor, single point]
CC(C)(C)c1nc(SCC(=O)Nc2ccc(N3CCOCC3)cc2)c2ccccc2n1 | Potency: inconclusive: 6.31 µM [activator, partial curve]

The results go on:

SMILES | Potency | activity change, negative = inhibition
Cc1cc([N+](=O)[O-])nn1CCCC(=O)N1CCN(c2ccc(F)cc2)CC1 | inactive | 
COc1ccc(/C=C/C(=O)C23CC4CC(CC(C4)C2)C3)cc1CN1CCOCC1 | inconclusive: 8.91 µM [activator, partial curve, poor fit] | 
O=c1c2ccccc2nc(SCc2ccccc2)n1Cc1ccco1 | inactive | 
C/C(=N/OCO/N=C(\C)c1ccccc1)c1ccccc1 | inconclusive: 35.5 µM [inhibitor, single point] | 
CCOC(=O)c1cnc2c(OC)cccc2c1N1CCN(c2ccccn2)CC1 | inconclusive: 12.6 µM [inhibitor, single point] | 
CCC(=O)N1CCCc2cc(S(=O)(=O)N3CCCc4ccccc43)ccc21 | inactive | 
CCOC(=O)C(CCCCCCC(NC(C)=O)(C(=O)OCC)C(=O)OCC)(NC(C)=O)C(=O)OCC | inconclusive: 0.447 µM [activator, single point] | 
COc1ccc(NC(=S)NCCCN2CCCC2=O)c(OC)c1 |  | inactive: -5.15% [at 9.22 µM]
CO[C@]12C(COC(N)=O)C3=C(C(=O)C(C)=C(N)C3=O)N1CC1NC12 (some centres not stated) | active: 12.6 µM | 
COc1ccc(C2/C=C\CN(C(=O)Nc3ccccc3-c3ccccc3)CC(=O)N2Cc2ccc(F)cc2)cc1 (configuration not stated) |  | inactive: -19.5% [at 9.22 µM]
COc1cc(CNCCCCO)ccc1OCc1ccccc1F | inconclusive: 25.1 µM [activator, partial curve, poor fit] | 
COCCn1c(SCc2cccnc2)nnc1-c1c[nH]c2ccccc12 | inconclusive: 1.26 µM [activator, single point] | 
COc1ccc(C2C3C=CCC(c4cccc(-c5ccc(C)cc5)c4)C3C(=O)N2Cc2ccccc2)cc1Cl (configuration not stated) | inconclusive: 0.891 µM [inhibitor, partial curve, poor fit] | 
COc1ccc(S(=O)(=O)CCc2nnc(NC(C)=O)s2)cc1 | inconclusive: 35.5 µM [activator, single point] | 
CCCc1nc(SCC(=O)c2ccc(F)cc2)c2ccccc2n1 | inactive | 
COc1ccc(-c2cccc(C3CC=CC4C3C(=O)N(Cc3ccccc3)C4c3ccc(C(F)(F)F)cc3)c2)cc1 (configuration not stated) | active: 1 µM | 
CCn1nc(C)cc1C(=O)N1CCCC(C(=O)c2ccc3ccccc3c2)C1 (configuration not stated) | inconclusive: 0.708 µM [activator, partial curve] | 
CC(NCC(=O)Nc1cc(S(=O)(=O)N2CCCCCC2)ccc1Cl)c1ccccc1 (configuration not stated) | inconclusive: 22.4 µM [inhibitor, single point] | 
CC1CCN(c2c(NCC3CCC(C(=O)NCCc4ccccc4)CC3)c(=O)c2=O)CC1 (configuration not stated) | inactive | 
Oc1cccc2c(NC(=S)Nc3ccc(OC(F)F)cc3)cccc12 | active: 12.6 µM | 
CN(C)c1cccc2c1C(=O)c1ccccc1C2=O | inactive | 
